Assay results as given in the supplement of paper PMC10849652.
The other results are listed elsewhere or left out. Residues, ends and D or L forms follow the SMILES beside them. *: point of attachment. Cbz = O=C(OCc1ccccc1)*

Amino acid sequences for entries named in this document (tags omitted). A change or cut given only in a name is not applied to a line headed by its entry.
UniProt Q8N0Y2: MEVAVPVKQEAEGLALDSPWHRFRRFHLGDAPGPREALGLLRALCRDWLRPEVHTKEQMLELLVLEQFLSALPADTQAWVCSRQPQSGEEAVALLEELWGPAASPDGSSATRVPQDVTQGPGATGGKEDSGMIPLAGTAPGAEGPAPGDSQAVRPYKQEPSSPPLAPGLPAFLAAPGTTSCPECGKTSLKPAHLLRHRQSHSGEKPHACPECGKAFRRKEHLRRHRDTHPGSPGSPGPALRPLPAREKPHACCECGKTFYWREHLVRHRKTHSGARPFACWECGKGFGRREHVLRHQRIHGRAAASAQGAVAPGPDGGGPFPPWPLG

These compounds were tested against ZNF428 (UniProt M0QXZ5) (assay: log2 fold change, soluble protein after heating vs DMSO (PISA); higher = thermal stabilisation; K562 cells, 10 uM, 30 min; active = over 0.2 and 3.5 SD of the protein, either way, in both replicates (recomputed)).
Method in brief: (§1)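 K562 cells at 2×10^6 cells/mL were exposed to 10 μM compound for 30 min, then aliquots were heated for 3 min across 48°C-58°C, pooled, and extracted in PBS containing 0.5% NP-40 at 4°C. The supernatant after 21,000xg for 90 min was taken as soluble protein and measured by TMTpro 16plex LC-MS/MS with channel sums equalised. Thermal stability is reported relative to control samples, with values from duplicates. Fold changes are given on a log2 scale.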

log2 fold change, inactive:
C=CC(=O)N1CCC[C@@H](n2nc(-c3ccc(Oc4ccccc4)cc3)c3c(N)ncnc32)C1 [ibrutinib] 0.019
COc1cc(C(=O)O)ccc1NC(=O)[C@@H]1N[C@@H](CC(C)(C)C)[C@](C#N)(c2ccc(Cl)cc2F)[C@H]1c1cccc(Cl)c1F [idasanutlin] 0.092
CCCc1cc(C)[nH]c(=O)c1CNC(=O)c1cc(-c2ccnc(N3CCN(C)CC3)c2)cc2c1cnn2C(C)C -0.055
CC[C@H](C)n1cc(C)c2c(C(=O)NCc3c(C)cc(C)[nH]c3=O)cc(-c3ccc(N4CCNCC4)nc3)cc21 -0.03
Cn1cc(-c2ccc3nnc(C(F)(F)c4ccc5ncccc5c4)n3n2)cn1 -0.044
Cn1cc(-c2ccc3c(c2)CCN3C(=O)Cc2cccc(C(F)(F)F)c2)c2c(N)ncnc21 0.106
O=C1c2ccccc2-c2n[nH]c3cccc1c23 0.035
Oc1cc(-c2nc(-c3ccccc3)[nH]c2-c2ccncc2)ccc1Cl 0.075
Cc1ccc(NC(=O)c2cccc(N(C)C)c2)cc1NC(=O)c1ccc(O)cc1 0.084
CC(C)C[C@@H](C=O)NC(=O)[C@H](CC(C)C)NC(=O)[C@H](CC(C)C)NC(=O)OCc1ccccc1 (Cbz-Leu-Leu-Leu-aldehyde) -0.049
CC(=O)c1cnc2ccc(-c3cc(Cl)c(O)c(Cl)c3)nc2c1N[C@H]1CC[C@H](CN(C)C)CC1 -0.039
O=C(O)c1ccc2c(c1)nc(Nc1cccc(Cl)c1)c1ccncc12 [silmitasertib] 0.012
O=C1NC(=NCc2cccs2)S/C1=C\c1ccc2ncccc2c1 -0.064
COc1cccc2cc(-c3nc([C@H]4CC[C@H](C(=O)O)CC4)n4ncnc(N)c34)[nH]c12 0.02
CC(C)(C)Cn1c(N)nc2ccc(-c3[nH]c(C(C)(C)C)nc3-c3ccc(F)cc3)nc21 [ralimetinib] 0.174
Cc1ccc(C(=O)N(CCCN)[C@@H](c2nc3cc(Cl)ccc3c(=O)n2Cc2ccccc2)C(C)C)cc1 [ispinesib] 0.16
O=C1NC(=O)/C(=C\c2ccc3nccnc3c2)S1 0.023
Cc1ncc(-c2ccnc(Nc3ccc(S(C)(=O)=O)cc3)n2)n1C(C)C 0.01
FC(F)(F)c1ccc(/C=C/c2nc(COc3ccc(CCCCn4ccnn4)cc3)co2)cc1 [mubritinib] 0.001
NC(=O)c1cnc(N[C@@H]2CCCC[C@@H]2N)nc1Nc1cccc(-n2nccn2)c1 0.088
Cc1ccc(NC(=O)c2ccc(CN3CC[C@H](N(C)C)C3)c(C(F)(F)F)c2)cc1Nc1nccc(-c2cncnc2)n1 [bafetinib] -0.044
CO[C@H]1C[C@@H]2CC[C@@H](C)[C@@](O)(O2)C(=O)C(=O)N2CCCC[C@H]2C(=O)O[C@H]([C@H](C)C[C@@H]2CC[C@H](n3cnnn3)[C@H](OC)C2)CC(=O)[C@H](C)/C=C(\C)[C@@H](O)[C@@H](OC)C(=O)[C@H](C)C[C@H](C)/C=C/C=C/C=C/1C [zotarolimus] 0.089
C[C@@H](N)c1ccc(C(=O)Nc2ccnc3[nH]ccc23)cc1 -0.133
Cc1nc(Nc2n[nH]c3c2CN(C(=O)N[C@H](CN(C)C)c2ccccc2)C3(C)C)c2sccc2n1 -0.006
C/C(=N\NC(=O)c1cccc(S(=O)(=O)N2CCOCC2)c1)c1cc(Cl)ccc1O -0.05
NC1(c2ccc(-c3nc4ccn5c(=O)[nH]nc5c4cc3-c3ccccc3)cc2)CCC1 0.077
CCN(CCCOc1ccc2c(Nc3cc(CC(=O)Nc4cccc(F)c4)[nH]n3)ncnc2c1)CCOP(=O)(O)O [barasertib] 0.011
Cc1cn(-c2cc(NC(=O)c3ccc(C)c(Nc4nccc(-c5cccnc5)n4)c3)cc(C(F)(F)F)c2)cn1 [nilotinib] 0.016
COc1cc(Nc2ncc3c(n2)-c2ccc(Cl)cc2C(c2c(F)cccc2OC)=NC3)ccc1C(=O)O [alisertib] -0.066
COc1cc2ncnc(Nc3ccc(F)c(Cl)c3)c2cc1OCCCN1CCOCC1 [gefitinib] 0.022

These compounds were tested against ZNF444 (UniProt Q8N0Y2) in the same assay as above.
Method in brief: as §1

log2 fold change, inactive:
COc1cc(C(=O)O)ccc1NC(=O)[C@@H]1N[C@@H](CC(C)(C)C)[C@](C#N)(c2ccc(Cl)cc2F)[C@H]1c1cccc(Cl)c1F [idasanutlin] -0.025
Cn1cc(-c2ccc3c(c2)CCN3C(=O)Cc2cccc(C(F)(F)F)c2)c2c(N)ncnc21 -0.026
O=C1c2ccccc2-c2n[nH]c3cccc1c23 0.115
CC(=O)c1cnc2ccc(-c3cc(Cl)c(O)c(Cl)c3)nc2c1N[C@H]1CC[C@H](CN(C)C)CC1 -0.058
O=C1NC(=NCc2cccs2)S/C1=C\c1ccc2ncccc2c1 0.004
NC(=O)c1cnc(N[C@@H]2CCCC[C@@H]2N)nc1Nc1cccc(-n2nccn2)c1 0.177
CO[C@H]1C[C@@H]2CC[C@@H](C)[C@@](O)(O2)C(=O)C(=O)N2CCCC[C@H]2C(=O)O[C@H]([C@H](C)C[C@@H]2CC[C@H](n3cnnn3)[C@H](OC)C2)CC(=O)[C@H](C)/C=C(\C)[C@@H](O)[C@@H](OC)C(=O)[C@H](C)C[C@H](C)/C=C/C=C/C=C/1C [zotarolimus] -0.02
C[C@@H](N)c1ccc(C(=O)Nc2ccnc3[nH]ccc23)cc1 0.132
C/C(=N\NC(=O)c1cccc(S(=O)(=O)N2CCOCC2)c1)c1cc(Cl)ccc1O -0.13
